Assay results reported in publication PMC9954134.
No constants are given. Whether binding was seen depends on the method and setting. In cells and extracts the contact can be indirect. Some binding calls cover weakened binding; strength is not graded here. Blank lines part the entries; values can stand above or below the molecule they belong to.

The chains behind the UniProt entries cited, without tags or fusion partners. Where a name states a change or a piece, a line headed by the entry shows the natural chain unless it says otherwise. A line that says so, or that is headed by a name, gives the form on record, which may keep a tag or linker.
CD44 S291A (P16070-12, form named): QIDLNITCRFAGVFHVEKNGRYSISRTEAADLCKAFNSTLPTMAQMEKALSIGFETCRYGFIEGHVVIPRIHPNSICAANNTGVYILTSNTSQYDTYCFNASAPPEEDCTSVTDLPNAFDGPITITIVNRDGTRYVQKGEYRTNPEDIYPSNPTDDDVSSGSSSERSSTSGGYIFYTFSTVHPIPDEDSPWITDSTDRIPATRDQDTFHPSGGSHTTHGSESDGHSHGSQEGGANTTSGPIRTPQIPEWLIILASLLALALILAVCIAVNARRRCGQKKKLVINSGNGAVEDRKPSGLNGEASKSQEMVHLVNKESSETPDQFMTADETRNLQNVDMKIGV
CD44 Δ320 deletion mutant (P16070-12, form named): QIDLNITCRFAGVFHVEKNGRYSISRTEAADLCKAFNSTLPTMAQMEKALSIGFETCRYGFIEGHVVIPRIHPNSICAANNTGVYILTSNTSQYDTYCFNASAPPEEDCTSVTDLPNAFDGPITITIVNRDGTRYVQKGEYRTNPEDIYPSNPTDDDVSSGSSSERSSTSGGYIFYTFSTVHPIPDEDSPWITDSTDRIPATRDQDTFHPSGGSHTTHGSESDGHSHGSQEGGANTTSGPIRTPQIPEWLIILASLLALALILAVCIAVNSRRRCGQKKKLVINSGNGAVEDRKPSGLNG
CD44 mutant altering the putative nuclear localization signal (NLS mutant) (P16070-12, form named): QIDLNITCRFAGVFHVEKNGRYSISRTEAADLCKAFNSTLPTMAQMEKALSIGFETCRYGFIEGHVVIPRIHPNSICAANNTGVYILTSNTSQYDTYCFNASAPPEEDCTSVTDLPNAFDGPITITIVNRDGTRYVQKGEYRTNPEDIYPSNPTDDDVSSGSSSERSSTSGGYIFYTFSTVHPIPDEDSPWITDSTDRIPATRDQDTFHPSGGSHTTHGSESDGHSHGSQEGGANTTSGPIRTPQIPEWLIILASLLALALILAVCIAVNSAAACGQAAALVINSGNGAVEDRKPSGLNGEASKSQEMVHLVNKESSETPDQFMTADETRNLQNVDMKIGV
wild-type CD44 standard form (wt CD44) (P16070-12, form named): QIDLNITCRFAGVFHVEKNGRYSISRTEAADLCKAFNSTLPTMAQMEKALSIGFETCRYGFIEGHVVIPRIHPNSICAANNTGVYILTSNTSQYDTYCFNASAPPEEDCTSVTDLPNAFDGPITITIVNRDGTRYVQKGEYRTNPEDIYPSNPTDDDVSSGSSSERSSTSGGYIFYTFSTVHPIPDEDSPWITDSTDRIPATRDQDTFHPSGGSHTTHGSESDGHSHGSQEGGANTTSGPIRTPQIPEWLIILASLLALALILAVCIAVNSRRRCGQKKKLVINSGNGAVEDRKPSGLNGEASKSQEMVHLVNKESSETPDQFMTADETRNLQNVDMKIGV
CD44 mutated in the ankyrin-binding domain (R313I, K314N) (P16070-12, form named): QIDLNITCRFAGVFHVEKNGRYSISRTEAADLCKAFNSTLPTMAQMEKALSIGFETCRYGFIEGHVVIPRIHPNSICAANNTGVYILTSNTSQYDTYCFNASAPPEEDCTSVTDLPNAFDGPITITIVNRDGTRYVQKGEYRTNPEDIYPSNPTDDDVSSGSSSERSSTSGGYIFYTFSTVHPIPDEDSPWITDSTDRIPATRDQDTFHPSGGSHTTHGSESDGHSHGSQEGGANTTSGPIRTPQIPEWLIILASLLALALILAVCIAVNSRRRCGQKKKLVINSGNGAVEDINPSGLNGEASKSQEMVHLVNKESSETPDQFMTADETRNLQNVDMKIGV
CD44 S325A (P16070-12, form named): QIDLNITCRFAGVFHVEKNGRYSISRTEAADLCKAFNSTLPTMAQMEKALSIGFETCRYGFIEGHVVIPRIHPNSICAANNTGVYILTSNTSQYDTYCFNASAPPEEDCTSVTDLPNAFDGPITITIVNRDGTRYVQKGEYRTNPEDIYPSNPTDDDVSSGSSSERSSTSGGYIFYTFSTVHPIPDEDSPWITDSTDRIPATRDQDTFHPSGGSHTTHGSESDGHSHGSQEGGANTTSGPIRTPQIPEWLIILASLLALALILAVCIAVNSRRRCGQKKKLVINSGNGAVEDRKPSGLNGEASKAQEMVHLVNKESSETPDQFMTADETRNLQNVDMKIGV
CD44 S316A (P16070-12, form named): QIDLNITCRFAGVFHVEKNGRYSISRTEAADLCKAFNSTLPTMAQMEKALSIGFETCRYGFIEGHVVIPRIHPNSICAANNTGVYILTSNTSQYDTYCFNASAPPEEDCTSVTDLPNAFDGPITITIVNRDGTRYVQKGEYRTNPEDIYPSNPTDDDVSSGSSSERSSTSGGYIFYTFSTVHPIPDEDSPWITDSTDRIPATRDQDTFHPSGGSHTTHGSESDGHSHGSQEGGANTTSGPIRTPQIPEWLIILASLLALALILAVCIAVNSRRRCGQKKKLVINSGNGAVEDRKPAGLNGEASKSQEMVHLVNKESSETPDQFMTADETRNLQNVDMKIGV

Legend:
[1] = target: T1, iASPP (in lysates of cells transfected with CD44 constructs) (UniProt Q8WUF5); experiment: co-IP; HEK293 cells transiently transfected with wt CD44 or CD44 mutants; IP with antibodies against iASPP, blot for CD44 and iASPP
T1 sequence: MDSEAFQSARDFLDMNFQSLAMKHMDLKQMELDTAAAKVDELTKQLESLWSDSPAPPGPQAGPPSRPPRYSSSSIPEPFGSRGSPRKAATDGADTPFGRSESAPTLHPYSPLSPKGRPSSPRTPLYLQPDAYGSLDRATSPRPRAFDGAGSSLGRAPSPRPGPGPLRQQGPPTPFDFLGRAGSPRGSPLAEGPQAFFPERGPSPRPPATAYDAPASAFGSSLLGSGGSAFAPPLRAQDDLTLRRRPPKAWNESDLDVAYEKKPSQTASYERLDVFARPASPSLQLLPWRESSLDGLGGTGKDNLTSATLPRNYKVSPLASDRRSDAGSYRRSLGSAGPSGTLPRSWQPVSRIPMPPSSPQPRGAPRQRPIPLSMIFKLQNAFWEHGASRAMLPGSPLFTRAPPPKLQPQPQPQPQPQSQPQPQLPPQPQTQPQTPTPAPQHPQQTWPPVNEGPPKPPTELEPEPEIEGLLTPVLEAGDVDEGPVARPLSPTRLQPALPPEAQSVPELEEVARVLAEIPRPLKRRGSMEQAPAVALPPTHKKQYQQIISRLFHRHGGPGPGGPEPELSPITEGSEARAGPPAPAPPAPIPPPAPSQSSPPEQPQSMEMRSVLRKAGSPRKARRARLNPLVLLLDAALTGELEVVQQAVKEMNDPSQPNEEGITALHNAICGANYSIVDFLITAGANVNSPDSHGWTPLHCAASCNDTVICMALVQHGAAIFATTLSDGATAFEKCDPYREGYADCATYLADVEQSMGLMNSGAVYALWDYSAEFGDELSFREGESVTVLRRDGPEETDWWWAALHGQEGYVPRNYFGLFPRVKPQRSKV

[2] = target: T1, iASPP (in lysates of cells transfected with CD44 constructs); experiment: co-IP; MCF-7 cells transiently transfected with wt CD44 or the same CD44 mutants; iASPP-CD44 interaction by blot (Figure 3C)
[3] = target: T2, inhibitor of the apoptosis-stimulating protein of p53 (iASPP) (human (endogenous in AG1523, hTERT-BJ, MCF10A, HepG2, MTS64, H1299)) (UniProt Q8WUF5); experiment: proximity ligation; in situ PLA (Olink) for endogenous iASPP and CD44, with and without hyaluronan (Figure S2)
T2 sequence: T1 sequence

[4] = target: T2, inhibitor of the apoptosis-stimulating protein of p53 (iASPP) (human (endogenous in AG1523, hTERT-BJ, MCF10A, HepG2, MTS64, H1299)); experiment: co-IP; lysates of AG1523, hTERT-BJ, MCF10A, HepG2, MTS64 and H1299 cells; IP with an iASPP antibody (control rabbit IgG), blot for CD44 and iASPP; one wash with 500 mM NaCl, four with 150 mM NaCl buffer; cells also starved and stimulated with hyaluronan, 10% FBS, Nutlin, PDGF-BB or TGFβ, treated with p53 siRNA or overexpressing p53, at regular or high density
[5] = target: wild-type CD44 standard form (wt CD44) (UniProt P16070); experiment: co-IP; overexpression experiments; IP of CD44 with IM7 antibodies, blot with an iASPP antibody (Figure S1)

binding [1]: binds
Molecule: CD44 S291A (from UniProt P16070-12 21-361) (receptor)

binding [2]: binds
binding [1]: binds
Molecule: CD44 Δ320 deletion mutant (from UniProt P16070-12 21-320) (domain or fragment)

binding [2]: binds
binding [1]: binds
Molecule: wild-type CD44 standard form (wt CD44) (from UniProt P16070-12 21-361) (receptor)

binding [2]: binds
Molecule: CD44 mutated in the ankyrin-binding domain (R313I, K314N) (from UniProt P16070-12 21-361) (receptor)

binding [3]: binds
binding [4]: binds
Molecule: CD44 standard isoform (CD44s) (from UniProt P16070-12 21-361) (receptor)

Second part, the molecule before the results:

Molecule: CD44 mutant altering the putative nuclear localization signal (NLS mutant) (from UniProt P16070-12 21-361) (receptor)
binding [2]: binds
binding [1]: binds

Molecule: CD44 S325A (from UniProt P16070-12 21-361) (receptor)
binding [1]: binds

Molecule: CD44 S316A (from UniProt P16070-12 21-361) (receptor)
binding [1]: binds

B1: iASPP (in lysates of cells transfected with CD44 constructs) (protein, UniProt Q8WUF5 1-828)
chain: T1 sequence
binding [5]: binds
